# This is one part of the list. Shown are side measurements of this screen, not its main read-out; they come without a call. The list favours compounds with an active or inconclusive main result. Potencies come from curve fits of mixed quality, noted in brackets.
# Assay: qHTS Assay for Lipid Storage Modulators in Drosophila S3 Cells;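 as to cell number change: cells counted by Cell Tracker Red CMTPX staining in the red channel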
# Conditions: BODIPY lipid droplet fluorescence, 18-24 h; for cell number change: measured here: cell count max response, cells fed with added oleic acid
# Procedure, shortened: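 Drosophila S3 cells loaded with oleic acid (400 uM, as added) and compounds at several concentrations; lipid droplets imaged by 488-nm laser-scanning cytometry, 500–530 nm intensity and object ratio to cell channel. Percent activity normalized to 20 uM Triacsin C.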
# [1] = measured here: lipid fluorescence (Fed channel) AC50, cells fed with added oleic acid
# [2] = measured here: cell number channel AC50, cells fed with added oleic acid
structure (smiles),measurement,setting,value
CCc1ccccc1NC(=O)CN(C)C(=O)CSc1nn(-c2ccccc2)c(=S)s1,cell number change,,3.38%
same,AC50,[1],"0.651 µM [rising, full curve, poor fit]"
Cc1ccc(CNc2ccc([N+](=O)[O-])cc2C(N)=O)cc1,cell number change,,-34.6%
same,AC50,[2],"9.2 µM [falling, partial curve]"
same,AC50,[1],"20.6 µM [falling, single point]"
CCN(CC)S(=O)(=O)c1ccc(N2CCOCC2)c(NC(=O)COc2ccccc2)c1,cell number change,,-47.1%
same,AC50,[2],"23.1 µM [falling, single point]"
same,AC50,[1],"29.1 µM [falling, single point]"
COc1cc(OC)c(C(=O)NC2CCCCCC2)cc1OC,cell number change,,158%
same,AC50,[2],"3.66 µM [falling, partial curve]"
COc1ccc(-c2nc(CCNC(=O)c3cccs3)cs2)cc1,cell number change,,-16.1%
same,AC50,[1],"6.51 µM [rising, partial curve]"
Cc1csc(NC(=O)/C=C/c2ccc3c(c2)OCO3)n1,cell number change,,6.97%
same,AC50,[1],"0.164 µM [rising, full curve]"
O=C(c1ccco1)N1CCN(C(=O)c2ccccc2OC(=O)C23CC4CC(CC(C4)C2)C3)CC1,cell number change,,-0.349%
COc1cc(SC)ccc1C(=O)NCCOc1c(C)cc(C)cc1C,cell number change,,6.15%
CCOC(=O)c1cc2c(=O)n3ccccc3nc2n(CCCOC)c1=NC(C)=O,cell number change,,-24.3%
same,AC50,[1],"2.59 µM [falling, partial curve, poor fit]"
COc1ccc(-c2cc(=O)oc3cc(OC(C)C(=O)NC(Cc4c[nH]c5ccc(O)cc45)C(=O)O)ccc23)cc1 (stereo not given),cell number change,,23.6%
same,AC50,[1],"29.1 µM [rising, single point]"
Cc1c(Cl)cccc1NC(=O)CNC(=O)C1CC(=O)N(CCc2ccccc2)C1 (stereo not given),cell number change,,41.2%
same,AC50,[2],"0.0291 µM [rising, full curve, poor fit]"
same,AC50,[1],"29.1 µM [rising, partial curve, poor fit]"
O=C(NCc1ccccc1)c1onc(CSc2ccc(Cl)cc2)c1C(=O)NCC1CC1,cell number change,,-8.31%
same,AC50,[1],"2.91 µM [falling, single point]"
O=C(CN1C(=O)NC(c2ccc(F)cc2)C1=O)Nc1ccc2c(c1)OCCO2 (stereo not given),cell number change,,-38.4%
same,AC50,[1],"29.1 µM [falling, single point]"
CC(C)=CC(=O)OCC(=O)Nc1nc(C)c(Cl)cc1Cl,cell number change,,-0.544%
O=C(CNC(=O)c1ccco1)N/N=C/c1c[nH]c2ccccc12,cell number change,,-46.8%
same,AC50,[2],"18.4 µM [falling, partial curve, poor fit]"
same,AC50,[1],"18.4 µM [falling, partial curve, poor fit]"
FC(F)(F)c1cc(CCN2C(=S)NC[C@@H]2CC2CCCCC2)cc(C(F)(F)F)c1,cell number change,,-36.1%
same,AC50,[2],"29.1 µM [falling, single point]"
same,AC50,[1],"29.1 µM [falling, single point]"
COc1ccccc1Nc1ncnc2ccc(C)cc12,AC50,[2],"0.164 µM [rising, full curve]"
same,AC50,[1],"2.06 µM [rising, partial curve, poor fit]"
O=S(=O)(NCCSCc1ccc(Cl)cc1Cl)c1ccc2c(c1)OCCO2,cell number change,,-23.3%
CC1(C)CC2CC(C)(CN2C(=O)COC(=O)c2cncc(Br)c2)C1 (stereo not given),cell number change,,-39.5%
same,AC50,[2],"18.4 µM [falling, single point]"
same,AC50,[1],"18.4 µM [falling, single point]"
CCCSc1nsc(SCCC)c1C(N)=O,cell number change,,-0.819%
same,AC50,[1],"6.51 µM [falling, single point]"
CCN(CC(=O)Nc1ccccc1C(F)(F)F)C(=O)CCc1c(C)[nH]c(=O)c(C#N)c1C,cell number change,,4.5%
same,AC50,[1],"0.651 µM [rising, partial curve, poor fit]"
Cc1occc1C(=O)NNC(=S)NCC(C)C,AC50,[2],"1.84 µM [rising, partial curve]"
O=C(c1cc(F)ccc1F)C1CCCN(C(=O)c2ccc3nccnc3c2)C1 (stereo not given),cell number change,,-4.58%
same,AC50,[1],"3.26 µM [falling, single point]"
COc1cc(C(F)(F)F)nc(-c2ccccn2)n1,cell number change,,18.4%
same,AC50,[2],"6.51 µM [rising, partial curve, poor fit]"
O=C(CCN1C(=O)/C(=C/c2ccccc2F)SC1=S)Nc1cccnc1,cell number change,,-7.18%
same,AC50,[1],"6.51 µM [falling, single point]"
CCc1cccc(NC(=O)CCS(=O)(=O)c2cccc3nonc23)c1,cell number change,,-32.7%
same,AC50,[2],"29.1 µM [falling, partial curve, poor fit]"
NNC(=O)c1cc2c(s1)-c1cc(Cl)ccc1SC2,cell number change,,9.13%
same,AC50,[1],"2.06 µM [rising, full curve, poor fit]"
CCN(CC)c1ccc(/C=N/NC(=O)c2c[nH]c3ccccc23)cc1,cell number change,,2.22%
same,AC50,[1],"10.3 µM [rising, partial curve, poor fit]"
CCC1C(=O)Nc2ccccc2N1C(=O)COc1ccccc1 (stereo not given),cell number change,,10.9%
O=C(CNC(=O)c1ccco1)OCc1ccc(Cl)cc1,cell number change,,-141%
same,AC50,[2],"32.6 µM [falling, partial curve, poor fit]"
same,AC50,[1],"0.58 µM [falling, single point]"
C=CCn1c(SCC(=O)c2ccc(O)c(O)c2)nnc1-c1cccc(Cl)c1,cell number change,,20%
same,AC50,[1],"1.16 µM [rising, partial curve]"
O=C(NNC(=O)c1ccc(F)cc1F)c1ccc(-n2cnnn2)cc1,cell number change,,39.4%
same,AC50,[2],"29.1 µM [rising, single point]"
CCC(C#CCN1CCOCC1)(CC)OCCC#N,cell number change,,0.775%
same,AC50,[1],"29.1 µM [falling, single point]"
CN(C)CCC=C1c2ccccc2CCc2ccccc21,cell number change,,5.28%
same,AC50,[1],"16.4 µM [rising, single point]"
CC1CN(S(=O)(=O)c2ccc(C(=O)Nc3nccs3)cc2)CC(C)O1 (stereo not given),cell number change,,-21.9%
same,AC50,[1],"1.16 µM [rising, partial curve]"
Cc1ccnc2c1NC(=O)c1cccnc1N2C1CC1,cell number change,,8.63%
same,AC50,[1],"4.11 µM [rising, full curve, poor fit]"
CSS(=O)(=O)c1cccc2cccnc12,AC50,[1],"9.2 µM [falling, partial curve]"
Cn1c(=O)c2c(nc(Br)n2Cc2nnc(N)s2)n(C)c1=O,cell number change,,17.8%
same,AC50,[1],"2.31 µM [rising, partial curve]"
COc1cc(/C=C/C(=O)O)cc(S(=O)(=O)Nc2ccc3c(c2)CCC3)c1OC,cell number change,,7.56%
same,AC50,[1],"29.1 µM [falling, single point]"
C/C=C/C1=CC(=O)C[C@H](c2ccc(F)cc2)C1,cell number change,,-32.2%
same,AC50,[2],"29.1 µM [falling, single point]"
O=C(COC(=O)c1cccc(S(=O)(=O)N2CCOCC2)c1)Nc1ncc(C(F)(F)F)cc1Cl,AC50,[1],"6.51 µM [falling, single point]"
Cc1cc(C)nc(/N=C(\N)Nc2ccc(OCCC(C)C)cc2)n1,cell number change,,-55.4%
same,AC50,[2],"8.2 µM [falling, partial curve]"
same,AC50,[1],"29.1 µM [falling, partial curve, poor fit]"
Clc1ccc2nc(-c3ccccc3)c(CN3CCOCC3)n2c1,cell number change,,-17.6%
same,AC50,[1],"16.4 µM [falling, partial curve]"
COc1cccc(/C=N/NC(=O)C(C)n2nc(C)c([N+](=O)[O-])c2C)c1O (stereo not given),cell number change,,4.15%
same,AC50,[1],"3.66 µM [falling, single point]"
CC(C)Oc1ccc(C(=O)NC2CCN(Cc3ccccc3)CC2)cc1,cell number change,,-46.1%
same,AC50,[2],"32.6 µM [falling, partial curve, poor fit]"
CCCn1cc(SCC(=O)NCc2ccco2)c2ccccc21,cell number change,,29.6%
same,AC50,[1],"18.4 µM [rising, single point]"
O=C(CC(C(=O)N1CCc2ccccc21)n1ccnc1)NCc1ccccc1 (stereo not given),AC50,[2],"0.58 µM [rising, full curve]"
same,AC50,[1],"0.103 µM [rising, full curve, poor fit]"
CCn1cc(C(=O)N2CCN(c3cccc(Cl)c3)CC2)c2cc(OC)c(OC)cc2c1=O,AC50,[2],"0.82 µM [rising, partial curve]"
same,AC50,[1],"1.16 µM [rising, full curve]"
CC1C(=O)N2CCCc3cc(S(=O)(=O)NCCc4ccccc4)cc1c32 (stereo not given),cell number change,,7.92%
same,AC50,[1],"29.1 µM [falling, single point]"
OC(Cn1cncn1)(c1ccc(F)cc1)c1ccc(Cl)cc1 (stereo not given),cell number change,,6.82%
same,AC50,[1],"0.82 µM [rising, full curve]"
CCn1c(SCC(=O)N2CCN(c3ccccc3)CC2)nnc1-c1c[nH]c2ccccc12,cell number change,,10.9%
same,AC50,[1],"6.51 µM [rising, single point]"
COc1cc(NC(=O)COC(=O)c2ccc(C)c(S(=O)(=O)N3CCCCC3)c2)c(C)cc1[N+](=O)[O-],cell number change,,-10.6%
COc1ccc(NC(=O)CC2(CC(=O)N3CCOCC3)CCCC2)cc1Cl,cell number change,,-12.4%
Cc1ccc(NC(=O)C2CCN(S(=O)(=O)c3ccc4c(c3)OCCO4)CC2)c(O)c1,cell number change,,-37%
same,AC50,[2],"5.17 µM [falling, full curve, poor fit]"
same,AC50,[1],"6.51 µM [falling, partial curve]"
Cc1cc(C)nc(N(C#N)CCOc2ccccc2)n1,AC50,[2],"0.461 µM [rising, full curve, poor fit]"
COCCCNS(=O)(=O)c1ccccc1,cell number change,,-23.1%
same,AC50,[1],"2.91 µM [falling, full curve, poor fit]"
O=C(COC(=O)c1cnccn1)NCCc1ccc(Cl)cc1,cell number change,,1.5%
COc1ccc(O)c(/C=N/N=C/c2cccc([N+](=O)[O-])c2)c1,cell number change,,-11%
C#C[C@]1(O)CC[C@H]2[C@@H]3CCc4cc(OC5CCCC5)ccc4[C@H]3CC[C@@]21C,cell number change,,-58.1%
same,AC50,[2],"16.4 µM [falling, single point]"
same,AC50,[1],"18.4 µM [falling, single point]"
